According to the supplement of paper PMC10849652:
Some of the results follow.

The chains behind the UniProt entries cited, without tags or fusion partners. Where a name states a change or a piece, a line headed by the entry shows the natural chain unless it says otherwise.
UniProt P52732: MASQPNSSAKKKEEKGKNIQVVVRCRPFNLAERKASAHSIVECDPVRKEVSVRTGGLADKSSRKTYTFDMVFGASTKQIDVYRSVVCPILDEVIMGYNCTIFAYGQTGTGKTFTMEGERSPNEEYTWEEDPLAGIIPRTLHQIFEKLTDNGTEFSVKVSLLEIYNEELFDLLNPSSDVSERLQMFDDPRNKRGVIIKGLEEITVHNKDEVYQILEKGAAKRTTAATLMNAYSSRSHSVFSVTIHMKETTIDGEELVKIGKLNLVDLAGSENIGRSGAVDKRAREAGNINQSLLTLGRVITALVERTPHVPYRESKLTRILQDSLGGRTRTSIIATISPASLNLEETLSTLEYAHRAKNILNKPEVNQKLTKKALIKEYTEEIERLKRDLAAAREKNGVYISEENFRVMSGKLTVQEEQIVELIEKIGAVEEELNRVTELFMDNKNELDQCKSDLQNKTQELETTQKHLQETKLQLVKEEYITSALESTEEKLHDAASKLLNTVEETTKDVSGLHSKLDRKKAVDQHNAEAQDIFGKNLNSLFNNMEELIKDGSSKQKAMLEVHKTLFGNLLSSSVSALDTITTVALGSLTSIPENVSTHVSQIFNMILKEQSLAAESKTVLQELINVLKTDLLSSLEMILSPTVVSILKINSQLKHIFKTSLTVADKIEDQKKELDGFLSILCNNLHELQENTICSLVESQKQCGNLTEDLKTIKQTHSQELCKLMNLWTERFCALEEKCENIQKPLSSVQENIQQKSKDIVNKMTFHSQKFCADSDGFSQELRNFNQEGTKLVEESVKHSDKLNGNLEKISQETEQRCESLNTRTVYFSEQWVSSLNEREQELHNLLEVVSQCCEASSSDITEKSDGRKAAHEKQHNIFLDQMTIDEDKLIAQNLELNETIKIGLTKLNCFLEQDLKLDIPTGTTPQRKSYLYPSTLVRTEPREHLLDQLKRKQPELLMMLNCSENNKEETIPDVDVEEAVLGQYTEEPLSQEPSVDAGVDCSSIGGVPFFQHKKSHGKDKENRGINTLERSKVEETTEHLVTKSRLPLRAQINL
UniProt A8MWY0: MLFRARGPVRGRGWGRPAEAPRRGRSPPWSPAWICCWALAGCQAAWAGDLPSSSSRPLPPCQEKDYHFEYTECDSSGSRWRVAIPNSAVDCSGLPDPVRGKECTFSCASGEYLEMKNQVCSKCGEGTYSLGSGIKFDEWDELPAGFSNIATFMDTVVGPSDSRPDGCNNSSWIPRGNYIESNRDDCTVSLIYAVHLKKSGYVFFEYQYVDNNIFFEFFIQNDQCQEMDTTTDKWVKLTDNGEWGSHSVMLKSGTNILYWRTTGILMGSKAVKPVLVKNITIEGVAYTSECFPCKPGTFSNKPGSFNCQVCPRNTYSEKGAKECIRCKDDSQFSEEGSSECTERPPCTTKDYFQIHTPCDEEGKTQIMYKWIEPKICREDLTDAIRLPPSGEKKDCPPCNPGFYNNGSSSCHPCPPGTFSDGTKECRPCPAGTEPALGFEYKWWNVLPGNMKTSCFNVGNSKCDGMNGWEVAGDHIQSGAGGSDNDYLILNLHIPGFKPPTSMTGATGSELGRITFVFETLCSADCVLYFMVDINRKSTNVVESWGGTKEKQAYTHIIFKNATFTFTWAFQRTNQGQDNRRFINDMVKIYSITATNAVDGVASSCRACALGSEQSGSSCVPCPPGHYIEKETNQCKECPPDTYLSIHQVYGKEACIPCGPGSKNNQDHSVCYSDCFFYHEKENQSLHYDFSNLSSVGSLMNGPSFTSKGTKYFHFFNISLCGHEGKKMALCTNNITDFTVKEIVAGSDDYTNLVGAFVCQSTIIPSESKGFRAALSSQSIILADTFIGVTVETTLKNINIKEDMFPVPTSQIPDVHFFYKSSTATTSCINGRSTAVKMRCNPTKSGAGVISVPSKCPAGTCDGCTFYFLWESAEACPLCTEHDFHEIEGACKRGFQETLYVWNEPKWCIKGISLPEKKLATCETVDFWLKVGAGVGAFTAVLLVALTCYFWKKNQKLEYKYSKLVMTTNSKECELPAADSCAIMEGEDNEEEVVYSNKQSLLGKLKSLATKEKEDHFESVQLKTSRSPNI
UniProt O94889: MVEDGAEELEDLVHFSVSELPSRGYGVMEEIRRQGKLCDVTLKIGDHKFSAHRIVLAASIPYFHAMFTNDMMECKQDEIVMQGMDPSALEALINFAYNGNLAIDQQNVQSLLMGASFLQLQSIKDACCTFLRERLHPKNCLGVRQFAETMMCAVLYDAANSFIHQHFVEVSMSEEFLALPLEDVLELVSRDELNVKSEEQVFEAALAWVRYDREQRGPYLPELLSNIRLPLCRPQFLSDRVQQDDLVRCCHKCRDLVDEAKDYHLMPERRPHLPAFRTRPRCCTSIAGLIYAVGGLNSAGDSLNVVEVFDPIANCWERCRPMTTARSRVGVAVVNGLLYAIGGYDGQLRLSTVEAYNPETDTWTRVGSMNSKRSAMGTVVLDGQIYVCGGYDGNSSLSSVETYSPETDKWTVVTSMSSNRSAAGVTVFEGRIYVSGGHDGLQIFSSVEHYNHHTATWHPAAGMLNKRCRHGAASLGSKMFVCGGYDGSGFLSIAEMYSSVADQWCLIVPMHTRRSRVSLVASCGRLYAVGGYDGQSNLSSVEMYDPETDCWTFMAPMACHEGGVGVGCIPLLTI
UniProt Q9Y2Q5, whole entry, looked up: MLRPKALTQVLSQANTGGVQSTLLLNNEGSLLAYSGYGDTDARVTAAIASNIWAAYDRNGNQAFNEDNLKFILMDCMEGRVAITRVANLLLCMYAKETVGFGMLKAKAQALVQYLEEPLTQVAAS
UniProt Q9H0B6: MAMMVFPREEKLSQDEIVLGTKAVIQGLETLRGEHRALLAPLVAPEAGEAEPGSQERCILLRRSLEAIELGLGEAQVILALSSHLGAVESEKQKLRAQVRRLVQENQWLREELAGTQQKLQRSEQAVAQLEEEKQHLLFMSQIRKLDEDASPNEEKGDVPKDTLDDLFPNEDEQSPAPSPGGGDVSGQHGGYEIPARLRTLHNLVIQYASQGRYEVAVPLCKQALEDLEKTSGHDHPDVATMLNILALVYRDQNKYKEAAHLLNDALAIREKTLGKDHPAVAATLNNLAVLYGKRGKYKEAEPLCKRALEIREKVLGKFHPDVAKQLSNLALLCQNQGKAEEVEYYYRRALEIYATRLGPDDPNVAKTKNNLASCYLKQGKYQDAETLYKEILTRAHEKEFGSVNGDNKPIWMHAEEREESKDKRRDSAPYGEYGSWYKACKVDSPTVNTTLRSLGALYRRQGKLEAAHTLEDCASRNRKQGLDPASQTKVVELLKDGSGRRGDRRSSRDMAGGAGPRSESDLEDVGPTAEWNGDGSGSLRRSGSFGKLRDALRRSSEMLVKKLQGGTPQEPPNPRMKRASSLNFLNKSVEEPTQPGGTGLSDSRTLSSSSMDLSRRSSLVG
UniProt Q9BQD3: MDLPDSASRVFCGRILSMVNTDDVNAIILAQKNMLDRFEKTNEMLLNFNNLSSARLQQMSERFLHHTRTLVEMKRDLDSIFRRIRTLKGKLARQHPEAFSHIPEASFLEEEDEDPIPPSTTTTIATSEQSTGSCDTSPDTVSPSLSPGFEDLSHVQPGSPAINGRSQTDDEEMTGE
UniProt Q53GT1: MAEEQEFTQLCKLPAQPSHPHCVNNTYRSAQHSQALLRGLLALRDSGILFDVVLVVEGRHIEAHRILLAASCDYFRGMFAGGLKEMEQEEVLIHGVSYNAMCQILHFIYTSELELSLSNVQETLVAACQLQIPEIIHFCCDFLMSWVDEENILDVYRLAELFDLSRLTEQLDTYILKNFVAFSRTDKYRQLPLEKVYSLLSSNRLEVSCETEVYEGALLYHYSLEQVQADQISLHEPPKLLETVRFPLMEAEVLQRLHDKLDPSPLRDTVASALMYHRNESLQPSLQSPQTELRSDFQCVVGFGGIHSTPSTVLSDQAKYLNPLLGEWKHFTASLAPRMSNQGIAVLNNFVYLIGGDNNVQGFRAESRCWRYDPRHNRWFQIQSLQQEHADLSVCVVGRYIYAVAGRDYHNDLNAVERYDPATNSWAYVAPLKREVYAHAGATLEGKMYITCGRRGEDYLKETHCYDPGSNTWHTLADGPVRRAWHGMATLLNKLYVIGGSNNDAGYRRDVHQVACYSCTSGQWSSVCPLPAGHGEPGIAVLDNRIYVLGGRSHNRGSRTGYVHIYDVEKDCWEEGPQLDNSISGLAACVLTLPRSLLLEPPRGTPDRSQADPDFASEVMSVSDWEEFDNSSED
UniProt Q14974, whole entry, looked up: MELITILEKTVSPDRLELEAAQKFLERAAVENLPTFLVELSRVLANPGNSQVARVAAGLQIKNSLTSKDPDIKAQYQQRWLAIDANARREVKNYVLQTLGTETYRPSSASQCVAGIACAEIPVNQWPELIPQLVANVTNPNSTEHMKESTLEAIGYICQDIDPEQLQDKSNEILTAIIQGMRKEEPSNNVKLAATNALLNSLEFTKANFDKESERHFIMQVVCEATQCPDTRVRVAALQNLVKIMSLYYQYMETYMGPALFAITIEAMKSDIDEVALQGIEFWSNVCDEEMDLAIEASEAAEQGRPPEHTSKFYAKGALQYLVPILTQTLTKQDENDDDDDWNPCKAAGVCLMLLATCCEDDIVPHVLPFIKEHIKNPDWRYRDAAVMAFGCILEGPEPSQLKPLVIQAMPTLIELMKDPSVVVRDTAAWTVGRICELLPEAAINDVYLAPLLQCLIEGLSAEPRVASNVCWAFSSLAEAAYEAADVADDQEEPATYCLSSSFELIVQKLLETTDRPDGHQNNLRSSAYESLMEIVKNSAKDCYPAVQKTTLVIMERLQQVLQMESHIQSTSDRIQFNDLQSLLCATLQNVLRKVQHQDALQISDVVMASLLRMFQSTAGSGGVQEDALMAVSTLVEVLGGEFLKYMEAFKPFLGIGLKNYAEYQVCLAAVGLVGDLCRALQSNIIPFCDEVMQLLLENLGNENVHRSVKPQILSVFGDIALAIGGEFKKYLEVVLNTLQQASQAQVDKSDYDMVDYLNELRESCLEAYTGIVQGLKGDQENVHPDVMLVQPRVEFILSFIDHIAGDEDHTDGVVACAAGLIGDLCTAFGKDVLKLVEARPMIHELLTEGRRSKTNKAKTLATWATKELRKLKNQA
UniProt Q14807: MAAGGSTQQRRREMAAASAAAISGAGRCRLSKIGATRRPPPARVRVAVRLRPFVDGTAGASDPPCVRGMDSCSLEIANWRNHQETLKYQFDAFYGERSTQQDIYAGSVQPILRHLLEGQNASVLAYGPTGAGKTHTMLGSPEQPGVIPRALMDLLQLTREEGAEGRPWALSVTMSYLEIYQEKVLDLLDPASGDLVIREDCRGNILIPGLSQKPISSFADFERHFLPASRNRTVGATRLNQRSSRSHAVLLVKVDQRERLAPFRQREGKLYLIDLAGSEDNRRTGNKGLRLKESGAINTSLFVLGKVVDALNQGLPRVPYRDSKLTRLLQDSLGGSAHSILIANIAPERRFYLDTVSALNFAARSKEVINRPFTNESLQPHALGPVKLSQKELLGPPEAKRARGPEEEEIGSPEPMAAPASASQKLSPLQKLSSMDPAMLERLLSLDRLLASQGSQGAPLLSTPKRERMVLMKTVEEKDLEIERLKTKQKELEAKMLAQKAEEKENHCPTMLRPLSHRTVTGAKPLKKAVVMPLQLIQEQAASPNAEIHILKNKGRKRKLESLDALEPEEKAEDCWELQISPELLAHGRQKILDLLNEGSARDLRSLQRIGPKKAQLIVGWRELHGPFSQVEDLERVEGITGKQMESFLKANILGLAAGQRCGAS
UniProt O14782: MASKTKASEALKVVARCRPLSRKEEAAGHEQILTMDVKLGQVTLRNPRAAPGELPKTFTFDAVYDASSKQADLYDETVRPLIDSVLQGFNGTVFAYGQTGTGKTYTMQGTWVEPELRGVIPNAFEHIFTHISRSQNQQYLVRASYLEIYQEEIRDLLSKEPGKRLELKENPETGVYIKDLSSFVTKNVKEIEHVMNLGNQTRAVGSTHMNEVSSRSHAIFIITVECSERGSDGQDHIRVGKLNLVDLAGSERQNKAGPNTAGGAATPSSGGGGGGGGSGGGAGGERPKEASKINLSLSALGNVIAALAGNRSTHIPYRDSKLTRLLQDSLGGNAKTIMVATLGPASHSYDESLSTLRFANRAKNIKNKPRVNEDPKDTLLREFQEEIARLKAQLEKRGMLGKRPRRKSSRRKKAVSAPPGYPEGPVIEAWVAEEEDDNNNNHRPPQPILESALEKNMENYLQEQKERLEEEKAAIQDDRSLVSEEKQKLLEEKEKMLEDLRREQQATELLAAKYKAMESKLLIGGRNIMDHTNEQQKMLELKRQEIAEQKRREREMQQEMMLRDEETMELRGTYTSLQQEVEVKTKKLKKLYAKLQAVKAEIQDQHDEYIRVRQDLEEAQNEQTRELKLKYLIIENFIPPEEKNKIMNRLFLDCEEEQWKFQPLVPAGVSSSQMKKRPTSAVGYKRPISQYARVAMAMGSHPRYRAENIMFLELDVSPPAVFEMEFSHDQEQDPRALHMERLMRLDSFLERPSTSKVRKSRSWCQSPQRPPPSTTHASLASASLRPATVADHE

Experiments:
Test in all cases: log2 fold change, soluble protein after heating vs DMSO (PISA); higher = thermal stabilisation; K562 lysate, 10 uM; active = over 0.2 and 3.5 SD of the protein, either way, in both replicates (recomputed)
alvocidib = compound: CN1CC[C@H](c2c(O)cc(O)c3c(=O)cc(-c4ccccc4Cl)oc23)[C@H](O)C1 [alvocidib]
Summary of the method: (§1)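 Dounce homogenisation of K562 pellets in PBS pH 7.4 with 1 mM MgCl2 produced a crude extract, used at 1 mg/mL protein. Exposure to 10 μM compound lasted 30 min, and aliquots were then heated for 3 min across 48°C-58°C, pooled and brought to 0.5% NP-40 at 4°C. The supernatant after 21,000xg for 90 min was quantified by TMTpro 16plex LC-MS/MS with channel sums equalised. Duplicate values are given as log-two fold change in thermal stability relative to solvent controls.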

Tubastatin A = compound: CN1CCc2c(c3ccccc3n2Cc2ccc(C(=O)NO)cc2)C1 [Tubastatin A]
Summary of the method: as §1

[1] = compound: CNC(=O)C1=CC=CC=C1NC2=NC(=NC=C2Cl)NC3=C(C=C(C=C3)N4CCOCC4)OC
Summary of the method: as §1

defactinib = compound: CNC(=O)c1ccc(Nc2ncc(C(F)(F)F)c(NCc3nccnc3N(C)S(C)(=O)=O)n2)cc1 [defactinib]
Summary of the method: as §1

[2] = compound: CNc1nc(-c2ccc3c(N)n[nH]c3c2)cc(N2C[C@@H](C(=O)NC3CCCCC3)CC[C@H]2C)n1
Summary of the method: as §1

encorafenib = compound: COC(=O)N[C@@H](C)CNc1nccc(-c2cn(C(C)C)nc2-c2cc(Cl)cc(NS(C)(=O)=O)c2F)n1 [encorafenib]
Summary of the method: as §1

[3] = compound: COC(=O)[C@H](CCSC)NC(=O)C1=C(C=C(C=C1)NC[C@H](CS)N)C2=CC=CC=C2
Summary of the method: as §1

alisertib = compound: COc1cc(Nc2ncc3c(n2)-c2ccc(Cl)cc2C(c2c(F)cccc2OC)=NC3)ccc1C(=O)O [alisertib]
Summary of the method: as §1

[4] = compound: COc1cc2nc(-c3cc(F)ccc3O)nc(N[C@@H]3CNC[C@H]3C(C)(C)O)c2cc1OC
Summary of the method: as §1

gefitinib = compound: COc1cc2ncnc(Nc3ccc(F)c(Cl)c3)c2cc1OCCCN1CCOCC1 [gefitinib]
Summary of the method: as §1

Measured: log2 fold change

KIF11 (UniProt P52732)
inactive: alvocidib 0.008 | Tubastatin A -0.107 | [1] 0.035 | defactinib -0.007 | [2] -0.022 | encorafenib 0.034 | [3] 0.032 | alisertib -0.013 | [4] -0.003 | gefitinib 0.016

KLC1 isoform 6 (UniProt Q07866)
inactive: alvocidib -0.015 | Tubastatin A -0.038 | [1] 0.02 | defactinib -0.003 | [2] -0.018 | encorafenib 0.002 | [3] 0.002 | alisertib 0.002 | [4] 0.014 | gefitinib -0.009

KMT2D isoform 3 (UniProt O14686)
inactive: alvocidib -0.052 | Tubastatin A -0.009 | [1] -0.004 | defactinib 0.023 | [2] 0.012 | encorafenib 0.016 | [3] 0.027 | alisertib -0.019 | [4] -0.011 | gefitinib -0.006

KPNA6 (UniProt O60684)
inactive: alvocidib 0.034 | Tubastatin A -0.089 | [1] 0.047 | defactinib -0.032 | [2] 0.026 | encorafenib 0.019 | [3] 0.07 | alisertib 0.005 | [4] 0.003 | gefitinib 0.003

LARS (UniProt Q9P2J5)
inactive: alvocidib 0.051 | Tubastatin A -0.153 | [1] 0.006 | defactinib 0.023 | [2] -0.054 | encorafenib 0.001 | [3] 0.097 | alisertib 0.01 | [4] -0.013 | gefitinib -0.007

KMT5A (UniProt Q9NQR1)
inactive: alvocidib 0.009

LAMTOR5 (UniProt O43504)
inactive: alvocidib 0.007 | Tubastatin A 0.099 | [1] 0.066 | defactinib 0.088 | [2] 0.096 | encorafenib 0.053 | [3] -0.079 | alisertib 0.045 | [4] -0.008 | gefitinib -0.195

LARP1 (UniProt Q6PKG0)
inactive: alvocidib 0.032 | Tubastatin A -0.053 | [1] -0.026 | defactinib -0.01 | [2] -0.038 | encorafenib -0.002 | [3] -0.011 | alisertib 0.008 | [4] -0.005 | gefitinib -0.004

KLHDC4 (UniProt Q8TBB5)
inactive: alvocidib 0.049 | Tubastatin A 0.009 | [1] 0.004 | defactinib -0.014 | [2] -0.022 | encorafenib 0.029 | [3] -0.07 | alisertib 0.046 | [4] 0.044 | gefitinib -0.016

LAMB1 (UniProt P07942)
inactive: alvocidib -0.034 | Tubastatin A -0.002 | [1] -0.013 | defactinib 0.016 | [2] -0.021 | encorafenib -0.013 | [3] 0.001 | alisertib 0.079 | [4] -0.016 | gefitinib -0.084

KIAA1324L (UniProt A8MWY0)
inactive: alvocidib 0.018 | Tubastatin A 0.041 | [1] 0.027 | defactinib 0.07 | [2] -0.018 | encorafenib 0.042 | [3] -0.047 | alisertib -0.059 | [4] 0.001 | gefitinib 0.045

KNL1 (UniProt Q8NG31)
inactive: alvocidib -0.008 | Tubastatin A -0.073 | [1] 0.024 | defactinib -0.007 | [2] 0.018 | encorafenib 0.043 | [3] 0.055 | alisertib -0.032 | [4] 0.004 | gefitinib 0.008

KLHL18 (UniProt O94889)
inactive: alvocidib -0.009 | Tubastatin A -0.079 | [1] 0.026 | defactinib 0.073 | [2] -0.016 | encorafenib -0.112 | [3] -0.103 | alisertib 0.009 | [4] -0.023 | gefitinib -0.088

LAMTOR2 (UniProt Q9Y2Q5)
inactive: alvocidib -0.008 | Tubastatin A 0.059 | [1] -0.028 | defactinib 0.008 | [2] 0.057 | encorafenib 0.001 | [3] -0.006 | alisertib 0.057 | [4] -0.045 | gefitinib -0.009

KLC2 (UniProt Q9H0B6)
inactive: alvocidib -0.034 | Tubastatin A -0.072 | [1] 0.004 | defactinib -0.048 | [2] -0.006 | encorafenib 0.01 | [3] 0.043 | alisertib -0.038 | [4] 0.001 | gefitinib -0.098

KIF2C (UniProt Q99661)
inactive: alvocidib 0.011 | Tubastatin A -0.18 | [1] -0.006 | defactinib 0.018 | [2] 0.002 | encorafenib 0.004 | [3] 0.096 | alisertib -0.006 | [4] 0.001 | gefitinib -0.014

KHSRP (UniProt Q92945)
inactive: alvocidib -0.002 | Tubastatin A 0.042 | [1] -0.03 | defactinib 0.005 | [2] -0.037 | encorafenib 0.029 | [3] -0.044 | alisertib 0.03 | [4] -0.015 | gefitinib -0.004

KIF2A isoform 2 (UniProt O00139)
inactive: alvocidib 0.153

KXD1 (UniProt Q9BQD3)
inactive: alvocidib 0 | Tubastatin A 0.034 | [1] 0.017 | defactinib 0.027 | [2] 0.012 | encorafenib 0.016 | [3] -0.048 | alisertib -0.075 | [4] 0.038 | gefitinib 0.024

KLHL7 (UniProt Q8IXQ5)
inactive: alvocidib 0.187 | Tubastatin A -0.036 | [1] 0.038 | defactinib -0.17 | [2] 0.107 | encorafenib 0.093 | [3] 0.065 | alisertib -0.032 | [4] 0.029 | gefitinib -0.026

KMT2A isoform 3 (UniProt Q03164)
inactive: alvocidib -0.073 | Tubastatin A 0.011 | [1] -0.07 | defactinib -0.054 | [2] -0.069 | encorafenib -0.118 | [3] -0.037 | alisertib -0.371 | [4] 0.061 | gefitinib -0.172

LAPTM4B (UniProt Q86VI4)
inactive: alvocidib -0.161 | Tubastatin A 0.083 | [1] -0.029

KMT2C isoform 3 (UniProt Q8NEZ4)
inactive: alvocidib -0.025 | Tubastatin A -0.015 | [1] -0.017 | defactinib 0.068 | [2] -0.019 | encorafenib 0.002 | [3] 0.001 | alisertib -0.009 | [4] 0.028 | gefitinib 0.038

KLHL22 (UniProt Q53GT1)
inactive: alvocidib 0.03 | Tubastatin A 0.02 | [1] -0.061 | defactinib 0.093 | [2] -0.28 | encorafenib 0.068 | [3] 0.088

KIZ (UniProt Q2M2Z5)
inactive: alvocidib -0.086 | Tubastatin A 0.107 | [1] -0.011 | defactinib -0.086 | [2] 0.08 | encorafenib 0.024 | [3] -0.229

KPNB1 (UniProt Q14974)
inactive: alvocidib 0.019 | Tubastatin A -0.005 | [1] 0.003 | defactinib -0.021 | [2] -0.012 | encorafenib -0.006 | [3] 0.006 | alisertib -0.002 | [4] 0.014 | gefitinib 0.005

KIAA1522 isoform 2 (UniProt Q9P206)
inactive: alvocidib 0 | Tubastatin A -0.087 | [1] -0.006 | defactinib 0.046 | [2] 0.015 | encorafenib 0.146 | [3] -0.041 | alisertib -0.008 | [4] -0.015 | gefitinib 0.033

2 records picked at random from those above:
KMT2C isoform 3 (UniProt Q8NEZ4)
inactive: alvocidib -0.025 | Tubastatin A -0.015 | [1] -0.017 | defactinib 0.068 | [2] -0.019 | encorafenib 0.002 | [3] 0.001 | alisertib -0.009 | [4] 0.028 | gefitinib 0.038

KPNB1 (UniProt Q14974)
inactive: alvocidib 0.019 | Tubastatin A -0.005 | [1] 0.003 | defactinib -0.021 | [2] -0.012 | encorafenib -0.006 | [3] 0.006 | alisertib -0.002 | [4] 0.014 | gefitinib 0.005

(list continues)

KPNA3 (UniProt O00505)
inactive: alvocidib -0.032 | Tubastatin A -0.027 | [1] -0.006 | defactinib -0.014 | [2] -0.003 | encorafenib -0.081 | [3] 0.054 | alisertib -0.011 | [4] 0.009 | gefitinib 0.013

KDM5C (UniProt P41229)
inactive: alvocidib -0.02 | Tubastatin A -0.115 | [1] 0.059 | defactinib -0.009 | [2] 0.04 | encorafenib -0.018 | [3] 0.176 | alisertib -0.01 | [4] 0.09 | gefitinib -0.013

KIF22 (UniProt Q14807)
inactive: alvocidib -0.121 | Tubastatin A 0.099 | [1] -0.059 | defactinib 0.175 | [2] 0.137 | encorafenib 0.012 | [3] -0.017 | alisertib 0.011 | [4] 0.171 | gefitinib -0.013

KTN1 (UniProt Q86UP2)
inactive: alvocidib -0.001 | Tubastatin A 0.007 | [1] -0.003 | defactinib -0.014 | [2] 0.016 | encorafenib 0.004 | [3] 0.041 | alisertib 0 | [4] 0.003 | gefitinib 0.006

KIF3C (UniProt O14782)
inactive: alvocidib 0.033 | Tubastatin A -0.018 | [1] -0.01 | defactinib 0.157 | [2] 0.058 | encorafenib 0.101 | [3] 0.024 | alisertib 0.247 | [4] 0.07 | gefitinib -0.029

KPNA4 (UniProt O00629)
inactive: alvocidib -0.098 | Tubastatin A 0.007 | [1] 0.014 | defactinib -0.002 | [2] 0.008 | encorafenib 0.02 | [3] -0.059 | alisertib -0.007 | [4] 0.002 | gefitinib 0.013
